In PubChem BioAssay AID493014 (National Center for Advancing Translational Sciences (NCATS), 2011) one finds AC50 data, which are given here for 62 compounds.

Some of the results follow. Further columns of the screen follow, without active or inactive calls. Compounds called inactive in the main read-out are mostly missing here. Words in brackets tell the shape of the fitted curve; partial curves, single points and poor fits give uncertain potencies.

The nature of this test: qHTS Assay to Find Inhibitors of Chronic Active B-Cell Receptor Signaling. The following applies: ABC-DLBCL IkBa-CBG/CBR reporter, luminescence ratio (green luciferase fused to IkBa over red control in TMD8 lymphoma cells), 4 h. The essentials: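 Cell line TMD8 (human ABC DLBCL), stably expressing tet-inducible CBG68-IkBa fusion and CBR; IMDM/0.5% FBS; cpd up to 46 uM; dox induction, 4 h, 37C/5% CO2; dual luminescence; green/red ratio; MG132 control.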

[1] abbreviates: measured here: CBR red luminescence, cell number.
Where [2] appears, read: measured here: IkBa-CBG green luminescence.

On to `COc1ccccc1/C=C1\S/C(=N/NC(=O)c2cccc(Br)c2)NC1=O`, for which the half-maximal activity concentration (AC50) under setting [1] was 1.41 µM [falling, full curve].

Regarding `CCCCN(CCCC)CCCNC(=O)C12CN(Cc3ccccc3)CC1C(c1cccc([N+](=O)[O-])c1)=NO2` (configuration not stated), the AC50 under setting [1] was 29.1 µM [falling, single point]. In the case of `CCc1nc(SCC(=O)c2cc(C)ccc2C)n[nH]1`, the concentration at half-maximal activity (AC50) under setting [1] was 18.4 µM [falling, single point]. Same read-out and setting: the result for `C/C(=C\c1ccccc1)C1NC(=O)c2c(sc3c2CCCC3)N1` (configuration not stated) reads 13 µM [rising, partial curve, poor fit].

With `CCC(CC)NCCOC(=O)c1ccc([N+](=O)[O-])cc1`, under setting [1], the AC50 was 1.12 µM [falling, partial curve, poor fit].

For `Cc1nc2c(sc(=S)n2Cc2ccco2)c(=O)n1CC(=O)Nc1ccc(F)cc1`, the AC50 under setting [1] is 10 µM [falling, partial curve, poor fit]. For the compound `Cc1cc(C)c2c(NC(N)=S)n[nH]c2n1`, the concentration at half-maximal activity (AC50) under setting [1] is 22.4 µM [falling, single point]. On the same count and under the same terms, as for `COc1ccccc1N(CC(=O)NC1CCCC1)C(=O)c1oc(C(C)(C)C)cc1C`, the figure is 25.1 µM [falling, single point].

With `CNc1nc(Sc2cccc(C(F)(F)F)c2)cc(C(F)(F)F)n1`, the concentration at half-maximal activity (AC50) under setting [1] was 20 µM [rising, partial curve, poor fit]. Still for that read-out and setting: the result for `Cc1ccccc1-n1c(SCc2c(C)noc2C)nnc1-c1c[nH]c2ccccc12` reads 1.41 µM [rising, full curve, poor fit]; that for `O=[N+]([O-])c1cccc(/C=C/c2ccccn2)c1`, 0.0891 µM [rising, full curve, poor fit]; that for `C/C(=N\NC(=S)NCCc1ccccc1)c1ccc(O)cc1O`, 3.55 µM [falling, partial curve, poor fit]. With `CNC(=O)COC(=O)c1ccccc1NC(=O)c1ccco1`, under setting [1], the half-maximal activity concentration (AC50) was 10 µM [falling, partial curve]. The same measure, in the same setting: the result for `O=C(COc1ccc(F)cc1)N(Cc1cccc(Br)c1)C1CCS(=O)(=O)C1` (configuration not stated) reads 10 µM [falling, partial curve, poor fit]; that for `Cc1ccc(C(=O)N/N=C\c2sccc2C)cn1`, 14.1 µM [falling, partial curve, poor fit]; that for `Cc1cccc(C(=O)Oc2ccccc2/C=N/Nc2ccc([N+](=O)[O-])cc2)c1`, 1.84 µM [rising, partial curve]. Still for that read-out and setting: as for `CCNC(=O)NC(=O)C(C)Sc1nnc(COc2ccccc2Cl)o1` (configuration not stated), the figure is 29.1 µM [rising, single point]; as for `O=C(O)c1ccc(N/N=C/c2ccc3c(c2)OCO3)cc1`, 0.282 µM [falling, full curve, poor fit]. On the same count and under the same terms, the result for `COc1ccc(-n2cnnc2SCC(=O)NCc2cccs2)cc1` reads 29.1 µM [rising, single point]. Turning to `Cc1cc(S(=O)(=O)NC(C)C)ccc1OCC(=O)N1CCOCC1`, the half-maximal activity concentration (AC50) under setting [1] was 18.4 µM [falling, single point] and the AC50 under setting [2] is 23.1 µM [rising, partial curve, poor fit]. As to `CC(=O)c1ccc(C#CC(C)(C)O)s1`, under setting [1], the AC50 is 29.1 µM [rising, single point]. Take `Cc1cc(C)c(N=C2SCC(=O)N2Cc2ccco2)c(C)c1`: under setting [1], the concentration at half-maximal activity (AC50) was 3.98 µM [rising, single point]. On to `COc1cc2c(c(OC)c1OC)-c1ccc(NC(=O)c3ccc(F)cc3)c(=O)cc1[C@@H](NC(C)=O)CC2`, for which the half-maximal activity concentration (AC50) was 22.4 µM [falling, single point] under setting [1] and 22.4 µM [falling, single point] under setting [2]. With `N#C/C(=C/c1cccs1)c1ccccn1`, under setting [1], the concentration at half-maximal activity (AC50) is 2.51 µM [rising, partial curve, poor fit]. Still for that read-out and setting: as for `CC(=O)c1ccc(N/C=C/C(=O)c2ccc(Br)cc2)cc1`, the figure is 31.6 µM [rising, partial curve, poor fit]; as for `Nc1[nH]c(N=NC(=O)c2ccccc2)c2ccccc12`, 1.46 µM [falling, full curve].

For the compound `CC(C)NC(=S)NN=C1c2ccccc2-c2ccccc21`, the AC50 is 12.6 µM [rising, partial curve] under setting [1] and 35.5 µM [falling, partial curve, poor fit] under setting [2]. `CCc1nnc(NC(=O)CSc2sc3c(O)cc(=O)[nH]c3c2C#N)s1`: the AC50 under setting [1] was 0.562 µM [falling, partial curve, poor fit]. Same read-out and setting: the result for `COc1ccc(CCN(C(=O)c2cccc(F)c2)C2CC(=O)N(c3ccccc3)C2=O)cc1` (configuration not stated) reads 0.13 µM [falling, full curve, poor fit]. The same measure, in the same setting: the result for `C/C(CC(O)(/C=N/O)c1ccccc1)=N\O` (configuration not stated) reads 0.461 µM [rising, partial curve, poor fit]; that for `CCCSc1nc(C)cc(=O)[nH]1`, 6.51 µM [falling, single point]; that for `O=c1c2ccccc2nnn1CSc1nnc(-c2cccc(S(=O)(=O)N3CCCCC3)c2)o1`, 5.8 µM [falling, partial curve, poor fit]. On the same count and under the same terms, as for `CCN(CC)S(=O)(=O)c1ccc2c(c1)c(C(=O)O)cn2C`, the figure is 2.59 µM [rising, partial curve, poor fit]; as for `CCOC(=O)c1ccc(CNC(=O)CSc2nnnn2-c2ccc(Cl)cc2)o1`, 2 µM [rising, partial curve, poor fit]; as for `Clc1ccc(CNc2cnccn2)cc1Cl`, 5.01 µM [rising, partial curve, poor fit]. Turning to `COc1cc(/C=C2/SC(=NCc3ccccc3)N(Cc3ccccc3)C2=O)ccc1O`, the AC50 under setting [1] is 7.31 µM [rising, partial curve, poor fit]. `COCc1cc(=O)[nH]c(/N=C(\N)Nc2ccc(C)cc2C)n1`: under setting [1], the AC50 was 31.6 µM [rising, single point].

As to `O=C(NCCS(=O)(=O)NCC1CCCO1)c1ccccc1` (configuration not stated), the concentration at half-maximal activity (AC50) under setting [1] was 6.51 µM [falling, partial curve]. The same measure, in the same setting: as for `CCn1c(SCC(=O)Nc2cccc(C)c2)nc2ccccc2c1=O`, the figure is 14.1 µM [falling, single point]; as for `O=C(Nc1cc(N2CCOCC2)ncn1)NC1(C(F)(F)F)Oc2ccccc2O1`, 10.3 µM [falling, single point]; as for `Cc1cc(Br)cc(C)c1NC(=O)c1ccc(C#N)cc1F`, 1.12 µM [rising, full curve, poor fit]. On the same count and under the same terms, the result for `COc1cccc(CN(C)C(c2ccccc2)c2ccccc2)c1OC` reads 35.5 µM [rising, single point]; that for `CC1(C)O[C@@H]2[C@H](O1)[C@@H](CO)O[C@H]2n1cc(Br)c(=O)[nH]c1=O`, 0.00461 µM [rising, full curve, poor fit].

For the compound `CCOC(=O)C1=NN(c2ccccc2)C2(S1)SC(C(C)=O)=C(C)N2c1ccccc1` (configuration not stated), the concentration at half-maximal activity (AC50) under setting [1] is 0.164 µM [falling, full curve, poor fit]. The same measure, in the same setting: the result for `Cc1c(C(=O)Nc2cc(F)cc(F)c2)cnn1-c1ccccc1` reads 0.631 µM [rising, full curve, poor fit].

Consider `COc1cc(CNC(C)C23CC4CC(CC(C4)C2)C3)ccc1OCC(=O)NC(C)(C)C` (configuration not stated), for which the concentration at half-maximal activity (AC50) under setting [1] was 12.6 µM [falling, partial curve]. As to `N=C1/C(=C\c2ccc(-c3ccc(C(=O)O)cc3)o2)C(=O)N=C2SC=C(c3ccccc3)N12`, the concentration at half-maximal activity (AC50) under setting [1] was 2 µM [falling, partial curve, poor fit]. As for `COc1ccc(CNC(=O)NC2CCCCC2)cc1`, the concentration at half-maximal activity (AC50) under setting [1] was 35.5 µM [rising, single point]. Regarding `Cc1ccc(C(=O)NC(=S)/C=C2\N(C)c3ccccc3C2(C)C)cc1`, under setting [1], the AC50 was 29.1 µM [rising, single point]. The same measure, in the same setting: as for `CCN(CC)CCN(CC(=O)N(C1CCCCC1)C1CCCCC1)C(=O)c1ccco1`, the figure is 2.51 µM [falling, full curve, poor fit]. Turning to `Fc1nc(F)c(F)c(NCCCNc2c(F)c(F)nc(F)c2F)c1F`, the AC50 under setting [1] is 20 µM [falling, single point] and the AC50 under setting [2] is 15.8 µM [rising, partial curve, poor fit]. In the case of `COc1ccc(OC)c2[nH]c(=O)c(CCNC(=O)C3CCCCC3)cc12`, the AC50 under setting [1] is 7.08 µM [rising, full curve]. Take `CC12CCC(C(=O)NCCN3CCCCC3)(CC1=O)C2(C)C` (configuration not stated): under setting [1], the half-maximal activity concentration (AC50) was 3.55 µM [falling, partial curve, poor fit]. On the same count and under the same terms, as for `O=C(NC1=C(NC2CCS(=O)(=O)C2)C(=O)c2ccccc2C1=O)c1ccccc1` (configuration not stated), the figure is 14.1 µM [falling, single point]; as for `Cc1cc(NC(=O)CN2CCc3ccccc3C2)nc2c1c(=O)oc1ccccc12`, 35.5 µM [falling, single point]; as for `Cc1nc2ccc(C(=O)c3ccccc3)cc2[nH]1`, 32.6 µM [falling, single point].

As to `CCCn1c(SCC(=O)Nc2cc(S(=O)(=O)N3CCCCC3)ccc2C)n[nH]c1=O`, the concentration at half-maximal activity (AC50) under setting [1] is 36.6 µM [falling, partial curve, poor fit].

For the compound `O=C(N/C(=C/c1ccccc1Cl)C(=O)N1CCOCC1)c1ccccc1`, the AC50 under setting [1] is 2.06 µM [rising, partial curve, poor fit]. Same read-out and setting: as for `CC(C)COc1cccc(C(=O)Nc2ccc(S(=O)(=O)N3CCOCC3)cc2)c1`, the figure is 18.4 µM [falling, single point]; as for `O=[N+]([O-])c1cc(/C=N/O)ccc1Oc1ccccc1Cl`, 35.5 µM [falling, single point]; as for `O=C(NC(=S)Nc1ccc(NC(=O)c2cccs2)cc1)c1cc2ccccc2o1`, 0.58 µM [rising, partial curve, poor fit]. For `COc1cc2ccccc2cc1C(=O)N/N=C/c1ccc2c(c1)OCO2`, the half-maximal activity concentration (AC50) was 35.5 µM [falling, single point] under setting [1] and 8.91 µM [falling, partial curve, poor fit] under setting [2].
